Test results reported in PubChem BioAssay AID493014 (National Center for Advancing Translational Sciences (NCATS), 2011).
The other results are listed elsewhere or left out. Further columns of the screen follow, without active or inactive calls. Most of these compounds were active or inconclusive in the main read-out, so they are no random draw. Words in brackets tell the shape of the fitted curve; partial curves, single points and poor fits give uncertain potencies.

Test: qHTS Assay to Find Inhibitors of Chronic Active B-Cell Receptor Signaling
Details: ABC-DLBCL IkBa-CBG/CBR reporter, luminescence ratio (green luciferase fused to IkBa over red control in TMD8 lymphoma cells), 4 h
How it was run: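 Cell line TMD8 (human ABC DLBCL), stably expressing tet-inducible CBG68-IkBa fusion and CBR; IMDM/0.5% FBS; cpd up to 46 uM; dox induction, 4 h, 37C/5% CO2; dual luminescence; green/red ratio; MG132 control.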

[1] = measured here: CBR red luminescence, cell number
[2] = measured here: IkBa-CBG green luminescence

O=C(NCc1ccccc1)c1cccc(NC(=O)c2ccco2)c1
AC50 [1]: 12.6 µM [falling, partial curve, poor fit]

Cc1cccc(-n2ncc3c(NNC(=O)c4ccco4)ncnc32)c1
AC50 [1]: 0.891 µM [falling, full curve]

Cc1ccc(C(=O)C(C)Oc2ccc3ccc(=O)oc3c2)cc1 (centres undefined)
AC50 [1]: 15.8 µM [falling, single point]

COc1cc(/C=N/NC(=O)c2ccc3nc[nH]c3c2)cc(OC)c1OC
AC50 [1]: 35.5 µM [falling, single point]

O=C(CSc1ccccc1)NCCCc1ccccc1
AC50 [1]: 1.58 µM [rising, full curve]

N#Cc1ccsc1NC(=O)COC(=O)c1cc(Br)ccc1O
AC50 [1]: 11.2 µM [falling, partial curve, poor fit]

Cc1ccc(C(=O)c2cncc(Br)c2)cc1
AC50 [1]: 4.61 µM [falling, partial curve, poor fit]

Cc1ccc(S(=O)(=O)N2CCC(C(=O)NCc3ccncc3)CC2)cc1
AC50 [1]: 3.66 µM [falling, single point]

COc1cccc(C(=O)NC(=S)Nc2ccccc2N2CCCCC2)c1
AC50 [1]: 22.4 µM [rising, single point]

CCOc1c(OC(C)=O)ccc(/C=C/c2ccc3cccc(OC(C)=O)c3n2)c1[N+](=O)[O-]
AC50 [1]: 35.5 µM [falling, single point]
AC50 [2]: 35.5 µM [rising, partial curve, poor fit]

CCN(Cc1ccncc1)C(=O)CC1C(=O)NCCN1Cc1ccc(F)c(F)c1 (centres undefined)
AC50 [1]: 0.316 µM [rising, full curve, poor fit]

Cc1cc(C)nc(NC(=O)Cc2cccs2)n1
AC50 [1]: 0.651 µM [rising, full curve, poor fit]

Cc1ccc(NC(=O)C(c2ccc(Cl)cc2Cl)N2CCCC2)cc1 (centres undefined)
AC50 [1]: 25.9 µM [falling, single point]

CNc1snc(C)c1C(=O)OCC(=O)c1ccc(Cl)cc1
AC50 [1]: 0.326 µM [rising, partial curve, poor fit]

CCC(C)C1C(C#N)=C(N)Oc2n[nH]c(-c3ccccc3)c21 (centres undefined)
AC50 [1]: 36.6 µM [falling, partial curve, poor fit]

O=C(Nc1nc(-c2ccccc2)c(C(=O)c2ccccc2)s1)c1ccc(S(=O)(=O)N2CCCCC2)cc1
AC50 [1]: 25.9 µM [falling, partial curve, poor fit]

Clc1cccc(Nc2c3c(nc4ncnn24)CCC3)c1
AC50 [1]: 18.4 µM [rising, single point]

O=C(Oc1c(CN2CCOCC2)cc(Cl)c2cccnc12)c1cccs1
AC50 [1]: 0.794 µM [falling, full curve]
AC50 [2]: 1.12 µM [falling, full curve, poor fit]

Nc1ccc2c(c1)nnn2-c1ccccc1
AC50 [1]: 11.2 µM [falling, partial curve]

CNc1nc(-c2ccc(OC)cc2)c(-c2ccc(OC)cc2)s1
AC50 [2]: 17.8 µM [falling, partial curve, poor fit]

O=C1CC(c2ccccc2)Cc2nc3ncnn3cc21 (centres undefined)
AC50 [1]: 23.1 µM [rising, partial curve, poor fit]
AC50 [2]: 10.3 µM [falling, partial curve, poor fit]

O=C(CCCN1C(=O)/C(=C/c2cccs2)SC1=S)Nc1ccc(C(=O)O)cc1
AC50 [1]: 11.2 µM [falling, partial curve]

COc1ccccc1NC(=O)CNC(=O)c1ccccc1C
AC50 [1]: 0.58 µM [falling, full curve]

COc1cccc(/C=C/C(=O)NNC(=O)c2ccccc2)c1OC
AC50 [1]: 25.9 µM [falling, single point]

Cc1ccccc1OCCNc1cc(N2CC(C)NC(C)C2)ccc1[N+](=O)[O-] (centres undefined)
AC50 [1]: 15.8 µM [falling, partial curve]

c1ccc2cc(C3CCCCC3)ncc2c1
AC50 [1]: 14.6 µM [rising, partial curve, poor fit]

O=C1c2ccccc2C(Nc2ccc(S(=O)(=O)N3CCCCCC3)cc2)N1Cc1ccco1 (centres undefined)
AC50 [1]: 5.8 µM [falling, partial curve]
AC50 [2]: 7.31 µM [rising, partial curve, poor fit]

Cn1cccc1/C=C1\SC(=Nc2cccc(O)c2)NC1=O
AC50 [1]: 14.1 µM [falling, partial curve]

Cc1noc(C)c1COc1ccc(C(=O)NCCOc2ccccc2)cc1
AC50 [1]: 0.517 µM [rising, full curve, poor fit]

COc1ccc(OC)c(/C=N/NC(=O)c2[nH]ncc2Br)c1
AC50 [1]: 1.26 µM [falling, full curve]

COC(=O)c1ccccc1NC(=O)COc1ccc2c(c1)OCO2
AC50 [1]: 0.631 µM [falling, partial curve, poor fit]

CC1CCc2nn(CC(=O)NCCCN3CCOCC3)cc2C1 (centres undefined)
AC50 [1]: 3.66 µM [rising, partial curve, poor fit]

CCc1nc(N2CCN(C(=O)c3ccco3)CC2)c2c3c(sc2n1)CCCC3
AC50 [1]: 11.2 µM [falling, partial curve, poor fit]

CCCCc1cc(=O)oc2cc(C)cc(OCC(=O)Nc3ccccn3)c12
AC50 [1]: 12.6 µM [falling, single point]

Cc1nc([N+](=O)[O-])cn1CC(O)c1ccc(Cl)cc1 (centres undefined)
AC50 [1]: 0.562 µM [falling, partial curve, poor fit]

COc1cc(C(=O)N(C)Cc2cccc(OC)c2OC)ccc1OCC(=O)Nc1cccc(C(F)(F)F)c1
AC50 [1]: 0.184 µM [rising, full curve, poor fit]

CC(C)NC(=O)COc1coc(CN2CCN(C(=O)c3ccco3)CC2)cc1=O
AC50 [1]: 5.8 µM [rising, full curve, poor fit]

O=C(CSc1nnc(-c2ccc3c(c2)OCO3)o1)Nc1c(F)cccc1F
AC50 [1]: 11.6 µM [falling, partial curve, poor fit]

O=C(NC(NNc1ccc([N+](=O)[O-])cc1)(C(F)(F)F)C(F)(F)F)c1ccc(Cl)cc1
AC50 [1]: 20.6 µM [falling, single point]

CCOc1ccc(OCC(=O)c2c(O)c3ccccc3oc2=O)cc1
AC50 [1]: 3.16 µM [falling, partial curve]
